Laboratory results reported in publication doi:10.1101/2023.09.12.557303.
Results are given in words; binding and its absence hold for the method and conditions named. For part of these data: A result given as binding can be weak or reduced; the word gives no strength.

B1: Cep131-FL (1-1114 aa) (protein, UniProt A1Z7Z9 1-1134)
chain: MDLCLKGSQINLATRQKTKPKYTSRSLTTLHNPCPHFRPRSANFLQQRSRSSPFLGRPQSADPKFGRRLSNYFVEKELRNGGKRQVSSNDLLKSLLEEPIKRSWLCRSTCNSSESDYSLHKRTPDSSEEGEQFLVNMPVGEKVKSYSSYSGNQGLSNGALLQRTAKPDLPGRVSFSKPNMHADLDSSDCDNDKQEVRPSISAPGPLTLPSFLSKVEQADPVGQKKSVHFGSTAAEGEVLAETYEYPKCPSENCTCSTRSSSTTSTNEASASDVKCACDAPSCRFMESSKQVEPTSPTPTLPKAPSSELDVIREYKQAVEGVQVVKNHLGTDTLNNIEILPNYLDKYASPTKEKQNNLSETKNMATNSSAVNNGSVVYRPVGNPRNFGAENNFLPAVQDDRRSFANGSSDGVINNYLKVASTPPFVGKKKENVKPASADPIARSSKSKVTKSTINPAPLGKMKKAISVGSLREERKLSEYNLDKVDSWMSMQDQKQYDGKHKPGLEDLDEAQDNDTASQLSLKSNEDSRDSTYDEIVSVIKEIEEDKKRDNFSEGIPSELNLNLDSRCETADTVTVSEGKVPESGDKYKDILAYLNNVESSCDKTLMETRRSIPDSNRSEVEFVVEPDVTDEVPKLSELLMLPNHQLARRVIALSLRANELANAIHMSKEHVFQLRGEKQKSLRAEKSTAAAKLRDQKKHYEEVVTRHQGFIEQLLKDKGSLCEKVAALTRRLESQNQAWEHRLETELARTKETTMAGEKIRRERWVRENTKKIKELTVKGLEAEINKMNCDHQREVTELKRTHQMQLLDALEEARTKHEQIETSIRESCAQDREAIIEKERTAIRERFERQLEEEQRTQAEQRQKLTEEFAAERDRLQSELRQRENEHQARRQEALREQEQELEQAKFEMQERMAKQEEKYQNRVNTIEQQYQADFELWKTEHENKTKLAQAEKENAIRQHYRAERDRQLDELVVRMEADALQHKEEHELKMNRLKEKYEKDLVLAESVEKSLREKYAETRGKLAEADAQVRNSQAEVKQLQLELSHSKKMCGDIIMERDRLRDNLNADIQSELGVLNERHKQEMDQLQKRVHQTIQRQEETIEILKGDNDALRQQCLKLNAVIRQQRKDYCVK
B2: Cep131-N1 (1-480 aa) (domain or fragment, UniProt A1Z7Z9 1-480)
chain: MDLCLKGSQINLATRQKTKPKYTSRSLTTLHNPCPHFRPRSANFLQQRSRSSPFLGRPQSADPKFGRRLSNYFVEKELRNGGKRQVSSNDLLKSLLEEPIKRSWLCRSTCNSSESDYSLHKRTPDSSEEGEQFLVNMPVGEKVKSYSSYSGNQGLSNGALLQRTAKPDLPGRVSFSKPNMHADLDSSDCDNDKQEVRPSISAPGPLTLPSFLSKVEQADPVGQKKSVHFGSTAAEGEVLAETYEYPKCPSENCTCSTRSSSTTSTNEASASDVKCACDAPSCRFMESSKQVEPTSPTPTLPKAPSSELDVIREYKQAVEGVQVVKNHLGTDTLNNIEILPNYLDKYASPTKEKQNNLSETKNMATNSSAVNNGSVVYRPVGNPRNFGAENNFLPAVQDDRRSFANGSSDGVINNYLKVASTPPFVGKKKENVKPASADPIARSSKSKVTKSTINPAPLGKMKKAISVGSLREERKLSEYN
B3: Cep131-C1 (782-1114 aa) (domain or fragment, UniProt A1Z7Z9 782-1114)
chain: EAEINKMNCDHQREVTELKRTHQMQLLDALEEARTKHEQIETSIRESCAQDREAIIEKERTAIRERFERQLEEEQRTQAEQRQKLTEEFAAERDRLQSELRQRENEHQARRQEALREQEQELEQAKFEMQERMAKQEEKYQNRVNTIEQQYQADFELWKTEHENKTKLAQAEKENAIRQHYRAERDRQLDELVVRMEADALQHKEEHELKMNRLKEKYEKDLVLAESVEKSLREKYAETRGKLAEADAQVRNSQAEVKQLQLELSHSKKMCGDIIMERDRLRDNLNADIQSELGVLNERHKQEMDQLQKRVHQTIQRQEETIEILKGDNDALR
B4: Cep131-M1 (481-781 aa) (domain or fragment, UniProt A1Z7Z9 481-781)
chain: LDKVDSWMSMQDQKQYDGKHKPGLEDLDEAQDNDTASQLSLKSNEDSRDSTYDEIVSVIKEIEEDKKRDNFSEGIPSELNLNLDSRCETADTVTVSEGKVPESGDKYKDILAYLNNVESSCDKTLMETRRSIPDSNRSEVEFVVEPDVTDEVPKLSELLMLPNHQLARRVIALSLRANELANAIHMSKEHVFQLRGEKQKSLRAEKSTAAAKLRDQKKHYEEVVTRHQGFIEQLLKDKGSLCEKVAALTRRLESQNQAWEHRLETELARTKETTMAGEKIRRERWVRENTKKIKELTVKGL

How the values were obtained:
Test in all cases: two-hybrid
[1] = molecular target: Cep162-FL (Drosophila melanogaster)
[2] = molecular target: Cep162-N (1-447 aa) (Drosophila melanogaster)
[3] = molecular target: Cep162-C (448-897 aa) (Drosophila melanogaster)

| Binder | binding [1] | binding [2] | binding [3] |
| --- | --- | --- | --- |
| B1 | binds | no binding | binds |
| B2 | – | – | binds |
| B3 | – | – | binds |
| B4 | – | – | no binding |
